Results are given in words; binding and its absence hold for the method and conditions named. A result given as binding can be weak or reduced; the word gives no strength. Where a sequence is shown, tags or fusion partners need not be part of it.
Key:
[1] = biological target: erk1 His-6-tagged fusion protein; assay: in vitro bead pull-down
[2] = biological target: erk1 His-6-tagged fusion protein; assay: erk1 His-6 pulled down on RHAMM-coupled beads, anti-erk1 western blot
[3] = biological target: erk1 His-6-tagged fusion protein; assay: in vitro bead pull-down (figure legend)

Measured: binding

B1: RHAMM v5 (95 kDa full length murine RHAMM) (receptor, UniProt Q00547 1-794, looked up)
chain: MSFPKAPLKRFNDPSGCAPSPGAYDVKTSEATKGPVSFQKSQRFKNQRESQQNLNIDKDTTLLASAKKAKKSVSKKDSQKNDKDVKRLEKEIRALLQERGTQDKRIQDMESELEKTEAKLNAAVREKTSLSASNASLEKRLTELTRANELLKAKFSEDGHQKNMRALSLELMKLRNKRETKMRSMMVKQEGMELKLQATQKDLTESKGKIVQLEGKLVSIEKEKIDEKCETEKLLEYIQEISCASDQVEKCKVDIAQLEEDLKEKDREILSLKQSLEENITFSKQIEDLTVKCQLLETERDNLVSKDRERAETLSAEMQILTERLALERQEYEKLQQKELQSQSLLQQEKELSARLQQQLCSFQEEMTSEKNVFKEELKLALAELDAVQQKEEQSERLVKQLEEETKSTAEQLTRLDNLLREKEVELEKHIAAHAQAILIAQEKYNDTAQSLRDVTAQLESVQEKYNDTAQSLRDVTAQLESEQEKYNDTAQSLRDVTAQLESEQEKYNDTAQSLRDVTAQLESVQEKYNDTAQSLRDVTAQLESYKSSTLKEIEDLKLENLTLQEKVAMAEKSVEDVQQQILTAESTNQEYARMVQDLQNRSTLKEEEIKEITSSFLEKITDLKNQLRQQDEDFRKQLEEKGKRTAEKENVMTELTMEINKWRLLYEELYEKTKPFQQQLDAFEAEKQALLNEHGATQEQLNKIRDSYAQLLGHQNLKQKIKHVVKLKDENSQLKSEVSKLRSQLVKRKQNELRLQGELDKALGIRHFDPSKAFCHASKENFTPLKEGNPNCC
binds: all assays above

Reference: patent US6911429B2, “Compositions and methods for treating cellular response to injury and other proliferating cell disorders regulated by hyaladherin and hyaluronans” (Transition Therapeutics Inc., priority 1999, dated 2005)
